Literature values as cited in patent US5691365A, “Nicotinic receptor antagonists in the treatment of neuropharmacological disorders” (University of Kentucky Research Foundation, priority 1995, dated 1997).
At least one structure is not confirmed: it was looked up by name or label, or the drawing left a doubt.

Test system: rat hypothalamic and corticotropin-releasing hormone secretion
Details: dose-dependent, in vitro; cited from earlier work

For `CC(=O)OCC[N+](C)(C)C` [acetylcholine], the “concentration range stimulating IR-rCRH secretion” value is listed as 3.3×10(-10) to 10(-5).
